Values from PubChem BioAssay AID652259 (Drosophila RNAi Screening Center, 2013).
The screen tested about 22,000 reagents; this is a random part of those with a known target gene and a result. Over the whole deposit, 233 (1.1%) were called active. 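Light values are raw, unnormalised plate reads; the ratio scores behind the reporter calls were not deposited.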 Unmarked entries are inactive. Reagent sequences are not shown. The record does not give: the amount of reagent, the time to read-out, the dose of the treatment.

Screen: 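Identify new Wingless signalling regulators in fly cells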 (primary screen)
System: Drosophila clone 8 imaginal disc epithelial cells
Knock-down reagent: long dsRNA against Drosophila genes
Conditions: pathway stimulated by co-transfected Wingless expression plasmid
Measurement: 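Firefly luciferase from a tcf-site Wingless reporter, measured alongside co-transfected Renilla luciferase that tracks transfection; pathway stimulated by a Wingless plasmid; the firefly-to-Renilla ratio is not deposited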
Scale: firefly reporter light: higher = more Wg reporter light, before normalisation; Renilla control light: higher = more transfected or surviving cells
Hit rule: 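a knock-down is a candidate when at least two out of four statistical tests show it departing from its plate mean; one test alone signals a weak candidate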
Calls: active = candidate regulator (raises or lowers reporter); inactive = not a candidate

The opening 3 entries as a preview:
Vha68-3 [DRSC02809] | firefly reporter light, replicate 1 = 2784; firefly reporter light, replicate 2 = 9648; Renilla control light, replicate 1 = 1008; Renilla control light, replicate 2 = 4172
CG14480 [DRSC06452] | firefly reporter light, replicate 1 = 8489; Renilla control light, replicate 1 = 3061
CG31041 [DRSC13951] | firefly reporter light, replicate 1 = 4378; Renilla control light, replicate 1 = 1595

The listing, repeating the preview:
Vha68-3 [DRSC02809] | firefly reporter light, replicate 1 = 2784; firefly reporter light, replicate 2 = 9648; Renilla control light, replicate 1 = 1008; Renilla control light, replicate 2 = 4172
CG14480 [DRSC06452] | firefly reporter light, replicate 1 = 8489; Renilla control light, replicate 1 = 3061
CG31041 [DRSC13951] | firefly reporter light, replicate 1 = 4378; Renilla control light, replicate 1 = 1595
Osbp [DRSC16779] | firefly reporter light, replicate 1 = 2256; firefly reporter light, replicate 2 = 6093; Renilla control light, replicate 1 = 1261; Renilla control light, replicate 2 = 1728
Cht5 [DRSC16470] | firefly reporter light, replicate 1 = 11907; firefly reporter light, replicate 2 = 7.67e5; Renilla control light, replicate 1 = 4658; Renilla control light, replicate 2 = 3.88e5
CG31661 [DRSC00296] | firefly reporter light, replicate 1 = 1857; firefly reporter light, replicate 2 = 3473; Renilla control light, replicate 1 = 1405; Renilla control light, replicate 2 = 1610
CG31075 [DRSC16016] | firefly reporter light, replicate 1 = 7600; Renilla control light, replicate 1 = 2909
l(1)G0004 [DRSC20486] | firefly reporter light, replicate 1 = 3536; firefly reporter light, replicate 2 = 5207; Renilla control light, replicate 1 = 1581; Renilla control light, replicate 2 = 2320
CG34039 [DRSC09318] | firefly reporter light, replicate 1 = 2107; Renilla control light, replicate 1 = 1329
Chmp1 [DRSC10401] | firefly reporter light, replicate 1 = 5062; Renilla control light, replicate 1 = 1427
Surf4 [DRSC16875] | firefly reporter light, replicate 1 = 15357; Renilla control light, replicate 1 = 3376
CG14960 [DRSC08419] | firefly reporter light, replicate 1 = 5272; Renilla control light, replicate 1 = 1976
MTA1-like [DRSC12382] | firefly reporter light, replicate 1 = 14665; Renilla control light, replicate 1 = 1721
MTA1-like [DRSC22022] | firefly reporter light, replicate 1 = 3.64e5; firefly reporter light, replicate 2 = 3.21e5; Renilla control light, replicate 1 = 1.54e5; Renilla control light, replicate 2 = 1.56e5
CG17221 [DRSC00487] | firefly reporter light, replicate 1 = 3388; firefly reporter light, replicate 2 = 6193; Renilla control light, replicate 1 = 919; Renilla control light, replicate 2 = 2268
Bet3 [DRSC10388] | firefly reporter light, replicate 1 = 5915; Renilla control light, replicate 1 = 2492
CG15765 [DRSC18071] | firefly reporter light, replicate 1 = 2005; firefly reporter light, replicate 2 = 5415; Renilla control light, replicate 1 = 375; Renilla control light, replicate 2 = 674
mRpL42 [DRSC06235] | firefly reporter light, replicate 1 = 3440; firefly reporter light, replicate 2 = 3920; Renilla control light, replicate 1 = 887; Renilla control light, replicate 2 = 1737
CG9903 [DRSC20213] | firefly reporter light, replicate 1 = 16978; Renilla control light, replicate 1 = 9153
CG32161 [DRSC22128] | firefly reporter light, replicate 1 = 5.90e5; firefly reporter light, replicate 2 = 5.86e5; Renilla control light, replicate 1 = 2.09e5; Renilla control light, replicate 2 = 2.11e5
Pgam5 [DRSC18551] | firefly reporter light, replicate 1 = 3112; firefly reporter light, replicate 2 = 5744; Renilla control light, replicate 1 = 1222; Renilla control light, replicate 2 = 2291
alpha-Est2 [DRSC12614] | firefly reporter light, replicate 1 = 15152; Renilla control light, replicate 1 = 3331
niki [DRSC14285] | firefly reporter light, replicate 1 = 17424; Renilla control light, replicate 1 = 13274
Dph4 [DRSC12318] | firefly reporter light, replicate 1 = 8777; Renilla control light, replicate 1 = 2616
CG43058 [DRSC05434] | firefly reporter light, replicate 1 = 19162; Renilla control light, replicate 1 = 15948
